# Test results published in ChEMBL document CHEMBL4316593 (Eur J Med Chem, 2019).
# Further values from the same series stand in other lists.
# Columns and labels:
# Type in all cases: cell-based
# Settings in all cases: U-87MG ATCC
# [1] = Inhibition of RTK/PI3K/AKT/mTOR signaling in human U87 cells assessed as up regulation of glycogen phosphorylase B gene expression at cytotoxic IC50 measured after 48 hrs relative to control
# [2] = Inhibition of RTK/PI3K/AKT/mTOR signaling in human U87 cells assessed as down regulation of MYL12B gene expression at cytotoxic IC50 measured after 48 hrs relative to control
# [3] = Inhibition of RTK/PI3K/AKT/mTOR signaling in human U87 cells assessed as down regulation of GIT1 gene expression at cytotoxic IC50 measured after 48 hrs relative to control
# [4] = Inhibition of RTK/PI3K/AKT/mTOR signaling in human U87 cells assessed as down regulation of TIMP2 gene expression at cytotoxic IC50 measured after 48 hrs relative to control
# [5] = Inhibition of RTK/PI3K/AKT/mTOR signaling in human U87 cells assessed as up regulation of BNIP3L gene expression at cytotoxic IC50 measured after 48 hrs relative to control
# [6] = Inhibition of RTK/PI3K/AKT/mTOR signaling in human U87 cells assessed as up regulation of reticulon 3 gene expression at cytotoxic IC50 measured after 48 hrs relative to control
# [7] = Inhibition of RTK/PI3K/AKT/mTOR signaling in human U87 cells assessed as down regulation of SNHG1 gene expression at cytotoxic IC50 measured after 48 hrs relative to control
# [8] = Inhibition of RTK/PI3K/AKT/mTOR signaling in human U87 cells assessed as up regulation of phosphohistidine phosphatase 1 gene expression at cytotoxic IC50 measured after 48 hrs relative to control
# [9] = Inhibition of RTK/PI3K/AKT/mTOR signaling in human U87 cells assessed as down regulation of ANXA5 gene expression at cytotoxic IC50 measured after 48 hrs relative to control
# [10] = Inhibition of RTK/PI3K/AKT/mTOR signaling in human U87 cells assessed as up regulation of MISP gene expression at cytotoxic IC50 measured after 48 hrs relative to control
# [11] = Inhibition of RTK/PI3K/AKT/mTOR signaling in human U87 cells assessed as up regulation of tight junction protein 3 gene expression at cytotoxic IC50 measured after 48 hrs relative to control
# [12] = Inhibition of RTK/PI3K/AKT/mTOR signaling in human U87 cells assessed as up regulation of transmembrane protein 59 like gene expression at cytotoxic IC50 measured after 48 hrs relative to control
# [13] = Inhibition of RTK/PI3K/AKT/mTOR signaling in human U87 cells assessed as up regulation of TraB domain containing gene expression at cytotoxic IC50 measured after 48 hrs relative to control
# [14] = Inhibition of RTK/PI3K/AKT/mTOR signaling in human U87 cells assessed as down regulation of DNAJB14 gene expression at cytotoxic IC50 measured after 48 hrs relative to control
# [15] = Inhibition of RTK/PI3K/AKT/mTOR signaling in human U87 cells assessed as up regulation of peptidylprolyl isomerase B gene expression at cytotoxic IC50 measured after 48 hrs relative to control
# [16] = Inhibition of RTK/PI3K/AKT/mTOR signaling in human U87 cells assessed as down regulation of EZH2 gene expression at cytotoxic IC50 measured after 48 hrs relative to control
# [17] = Inhibition of RTK/PI3K/AKT/mTOR signaling in human U87 cells assessed as down regulation of MAP7D2 gene expression at cytotoxic IC50 measured after 48 hrs relative to control
# [18] = Inhibition of RTK/PI3K/AKT/mTOR signaling in human U87 cells assessed as up regulation of Rho GTPase activating protein 19 gene expression at cytotoxic IC50 measured after 48 hrs relative to control
# [19] = Inhibition of RTK/PI3K/AKT/mTOR signaling in human U87 cells assessed as down regulation of GABRQ gene expression at cytotoxic IC50 measured after 48 hrs relative to control
# [20] = Inhibition of RTK/PI3K/AKT/mTOR signaling in human U87 cells assessed as down regulation of HAUS2 gene expression at cytotoxic IC50 measured after 48 hrs relative to control
# [21] = Inhibition of RTK/PI3K/AKT/mTOR signaling in human U87 cells assessed as down regulation of GSR gene expression at cytotoxic IC50 measured after 48 hrs relative to control
# [22] = Inhibition of RTK/PI3K/AKT/mTOR signaling in human U87 cells assessed as up regulation of snurportin 1 gene expression at cytotoxic IC50 measured after 48 hrs relative to control
# [23] = Inhibition of RTK/PI3K/AKT/mTOR signaling in human U87 cells assessed as up regulation of lysine demethylase 4B gene expression at cytotoxic IC50 measured after 48 hrs relative to control
# [24] = Inhibition of RTK/PI3K/AKT/mTOR signaling in human U87 cells assessed as up regulation of alkB homolog 5, RNA demethylase gene expression at cytotoxic IC50 measured after 48 hrs relative to control
# [25] = Inhibition of RTK/PI3K/AKT/mTOR signaling in human U87 cells assessed as up regulation of sorting nexin 25 gene expression at cytotoxic IC50 measured after 48 hrs relative to control
# [26] = Inhibition of RTK/PI3K/AKT/mTOR signaling in human U87 cells assessed as up regulation of prostaglandin-endoperoxide synthase 1 gene expression at cytotoxic IC50 measured after 48 hrs relative to control
# [27] = Inhibition of RTK/PI3K/AKT/mTOR signaling in human U87 cells assessed as up regulation of cyclin dependent kinase 4 gene expression at cytotoxic IC50 measured after 48 hrs relative to control
# [28] = Inhibition of RTK/PI3K/AKT/mTOR signaling in human U87 cells assessed as down regulation of SLC35F5 gene expression at cytotoxic IC50 measured after 48 hrs relative to control
# [29] = Inhibition of RTK/PI3K/AKT/mTOR signaling in human U87 cells assessed as up regulation of growth factor receptor bound protein 7 gene expression at cytotoxic IC50 measured after 48 hrs relative to control
# [30] = Inhibition of RTK/PI3K/AKT/mTOR signaling in human U87 cells assessed as down regulation of STK4 gene expression at cytotoxic IC50 measured after 48 hrs relative to control
# [31] = Inhibition of RTK/PI3K/AKT/mTOR signaling in human U87 cells assessed as down regulation of GNPDA1 gene expression at cytotoxic IC50 measured after 48 hrs relative to control
# [32] = Inhibition of RTK/PI3K/AKT/mTOR signaling in human U87 cells assessed as down regulation of GLA gene expression at cytotoxic IC50 measured after 48 hrs relative to control
compound,measurement,setting,value
CC(=O)C(=NNc1ccccc1C#N)C(C)=O,log2FC,[1],0.835
same,log2FC,[2],-0.377
same,log2FC,[3],-0.701
same,log2FC,[4],-0.387
same,log2FC,[5],1.78
same,log2FC,[6],0.827
same,log2FC,[7],-0.445
same,log2FC,[8],0.793
same,log2FC,[9],-0.641
same,log2FC,[10],2.1
same,log2FC,[11],1.12
same,log2FC,[12],1.18
same,log2FC,[13],1.16
same,log2FC,[14],-0.668
same,log2FC,[15],1.12
same,log2FC,[16],-0.518
same,log2FC,[17],-3.02
same,log2FC,[18],0.851
same,log2FC,[19],-1.6
same,log2FC,[20],-0.745
same,log2FC,[21],-0.337
same,log2FC,[22],1.18
same,log2FC,[23],0.873
same,log2FC,[24],0.76
same,log2FC,[25],0.782
same,log2FC,[26],1.45
same,log2FC,[27],0.843
same,log2FC,[28],-1.02
same,log2FC,[29],1.07
same,log2FC,[30],-0.781
same,log2FC,[31],-0.61
same,log2FC,[32],-1.18
